Measured values reported in doi:10.1101/2022.03.30.486221 (bioRxiv, 2022).

Chains of the proteins cited; added tags and fusions are not shown. Lines headed by an entry give the natural chain unless they say otherwise; changes in a name come on top.
UniProt A0A9F1U434: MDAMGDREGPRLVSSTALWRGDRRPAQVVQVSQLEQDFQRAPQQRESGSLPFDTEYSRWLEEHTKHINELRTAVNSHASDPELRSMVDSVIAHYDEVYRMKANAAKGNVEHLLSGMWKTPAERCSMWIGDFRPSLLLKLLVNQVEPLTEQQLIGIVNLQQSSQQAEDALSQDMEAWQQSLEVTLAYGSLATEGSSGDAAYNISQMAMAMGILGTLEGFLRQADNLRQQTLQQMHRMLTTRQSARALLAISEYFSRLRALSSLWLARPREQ

How the values were obtained:
Assay in all cases: two-hybrid
[1] = biological target: StTGA2.1 (mini-TGA), yeast two-hybrid fusion (potato (Solanum tuberosum L.), cultivar Rywal)
[2] = biological target: StTGA2.3, yeast two-hybrid bait fusion (potato (Solanum tuberosum L.), cultivar Rywal)
[3] = biological target: StTGA2.2, yeast two-hybrid bait fusion (potato (Solanum tuberosum L.), cultivar Rywal)

Row | Substance | binding [1] | binding [2] | binding [3]
1 | StNPR1, yeast two-hybrid fusion (from UniProt A0A9F1UC91) | binds | binds | binds
2 | StTGA2.1 (mini-TGA), yeast two-hybrid fusion (from UniProt A0A9F1U434) | – | binds | binds

No constants are given. Whether binding was seen depends on the method and setting. A result given as binding can be weak or reduced; the word gives no strength.
